Part of at least one peptide drawing is inferred or uncertain, most often the ends. Peptide text beside a SMILES is read from it.
Key:
[1] = test system: EGFR; experiment: EGFR binding competition assay with iodinated EGF in MDA-MB-468 cells; set-up: species or system human; settings: 1 nM iodinated EGF, peptide 0.6, 6, 60 μM
Method: FIG. 6A: EGFR binding competition assays were performed in MDA-MB-468 cells. In brief, 150,000 cells/well were plated in 24 well plate. The binding assays were performed as described by Lonardo, et al., Mol. Cell. Biol, 2:992 (1990). In brief, 1 nM iodinated EGF (Amersham) was incubated with increasing concentrations of RL2 or RL2-K (0.6, 6, 60 μM, respectively). Increasing concentrations of unlabelled EGF were used as control, as shown in the insert. Each group was assayed in triplicate. Values are from three experiments and expressed as the mean percent of control cases.
To explore whether the RL2 peptide could specifically represent either a p185^erbB-2 or EGFR-extracellular binding site, we tested the aforementioned peptides in p185^erbB-2 or EGFR binding competition assays. Since iodinated gp30 was not available, p185^erbB-2 and EGFR competition assays were performed using iodinated monoclonal antibody 4D5 and iodinated EGF respectively. p185^erbB-2 monoclonal antibodies 4D5 and 7C2 were provided by Genentech, Inc., South San Francisco, Calif.
Among the peptides tested, only RL2 displaced in a dose-dependent manner (B/T 50: 8 μM) the binding of iodinated 4D5 to SK-Br-3 (FIG. 2).

[2] = test system: EGFR; experiment: in vitro tyrosine phosphorylation assay in MDA-MB-468 cells; format: cell-based, human; settings: 6-60 μM, EGF 1.68 nM
Method: Cells were grown in 24-well plates (Costar) to 70% confluence in 5% FCS IMEM and serum-starved 24 hours prior to assays. Cells were then treated for 20 minutes at 37° C. with RL1 or RL2 with and without gp30 (at concentrations given below), as indicated on Figure panels, washed once with serum-free IMEM, and lysed at 4° C. for 10 minutes with a lysis buffer containing SDS (Emprotech). Total cellular proteins were subjected to 4-20% SDS-PAGE, and blotted onto Hybond-ECL membranes (Amersham). Membranes were blocked with tris-buffered saline [5% BSA, 0.5% Tween 20] and probed with 1 μg/ml phosphotyrosine monoclonal antibody (UBI) in tris-buffered saline [0.5% BSA, 0.5% Tween 20]. Immune complexes were detected using the ECL-western blotting kit (Amersham) as indicated by the manufacturer. […] The values obtained were corrected for background and expressed as control percentages. […]
To further characterize RL2 blocking effects, we analyzed the homologous peptides for their ability to prevent the tyrosine phosphorylation induced by gp30 either in p185^erbB-2 or EGFR, or both of them. […] (Densitometric analyses of autoradiograms were performed using a SAMBA 4000 system (Dynatech Laboratories). The values obtained were corrected for background and expressed as control percentages. Differences were considered significant when effects more than 10% versus controls occurred.)

[3] = test system: MDA-MB-453 cells; experiment: soft agar colony formation (anchorage-independent growth) of MDA-MB-453 cells; format: cell-based, human; settings: for Number of Colonies (± SD): MDA-MB 453 cells, untreated 942 ± 120
Method: MDA-MB-453 (A), or SK-Br-3 cells (B) were plated in 35 mm tissue culture dishes (Costar). A bottom layer of 1 ml IMEM containing 0.6% Bacto-agar (Difco), 2 mM glutamine, and 10% FCS was prepared. Top layers contained 2×10^4 cells and samples in 0.4% Bacto-agar, 10% FCS IMEM. Samples were sterilized prior to plating by filtration using 0.22 μM Millex CU millipore filter. The legend of peptide symbols in A is identical to the one in FIG. 2. The following concentrations were used in B: 5×10^-12 M gp30, 2×10^-12 M p75, 60 μM RL2, and 127 nM p185^erbB-2 extracellular domain (ECD) as positive control. Experiments were carried out in FCS that had been tested for optimal cloning efficiency. Cells were incubated 7-9 days in humidified 5% CO2 atmosphere at 37° C. Colonies larger than 60-μm were counted using a Baush and Lomb Stem Cell Colony Counter (Artex Systems Corp.). Each group was assayed in triplicate. Experiments were performed three times.
*Cells were treated as indicated. The monoclonal antibody 4D5 (kindly
provided by Genentech, CA) and the RL2 peptide were used as positive
controls. Soft agar cloning assays were carried out as previously
described (Lupu, et al., Proc. Natl. Acad. Sci. USA, 87:2287-91, 1992).
Colonies larger than 69 μM were counted using a Baush & Lomb Stem Cell
Colony Counter (Artex Systems Corp.). Each group was assayed in
triplicate. Experiments were performed three times with similar results.

CC(C)C[C@H](NC(=O)CNC(=O)[C@@H](N)CC(C)C)C(=O)N[C@@H](CCCNC(=N)N)C(=O)N[C@@H](CO)C(=O)N[C@@H](CC(C)C)C(=O)N[C@@H](CCCCN)C(=O)N[C@@H](CCC(=O)O)C(=O)O [RL2-K, Leu-Gly-Leu-Arg-Ser-Leu-Lys-Glu] (H-LGLRSLKE-OH)
effect on binding of iodinated EGF to the EGFR [1]: blocked the binding of iodinated EGF to the EGFR in a dose-dependent manner
inhibition of the EGF stimulation of EGFR tyrosine phosphorylation [2]: up to 85%
Number of Colonies (± SD) ([3]; 6 μM): 788 ± 109
Number of Colonies (± SD) ([3]; 60 μM): 990 ± 92
effect on anchorage-independent growth / colony formation of MDA-MB-453 cells ([3]; similar concentrations (6-60 μM)): no significant effect

— patent publication US5874528A, “Binding peptides which interact with ligand growth factors of the epidermal growth factor receptor and erbB-2 receptor” (Georgetown University, priority 1994, dated 1999)
